The text below walks through data of paper PMC2778522.

By UniProt entry, the sequences of proteins in these tests, tags left out.
UniProt Q04207, whole entry: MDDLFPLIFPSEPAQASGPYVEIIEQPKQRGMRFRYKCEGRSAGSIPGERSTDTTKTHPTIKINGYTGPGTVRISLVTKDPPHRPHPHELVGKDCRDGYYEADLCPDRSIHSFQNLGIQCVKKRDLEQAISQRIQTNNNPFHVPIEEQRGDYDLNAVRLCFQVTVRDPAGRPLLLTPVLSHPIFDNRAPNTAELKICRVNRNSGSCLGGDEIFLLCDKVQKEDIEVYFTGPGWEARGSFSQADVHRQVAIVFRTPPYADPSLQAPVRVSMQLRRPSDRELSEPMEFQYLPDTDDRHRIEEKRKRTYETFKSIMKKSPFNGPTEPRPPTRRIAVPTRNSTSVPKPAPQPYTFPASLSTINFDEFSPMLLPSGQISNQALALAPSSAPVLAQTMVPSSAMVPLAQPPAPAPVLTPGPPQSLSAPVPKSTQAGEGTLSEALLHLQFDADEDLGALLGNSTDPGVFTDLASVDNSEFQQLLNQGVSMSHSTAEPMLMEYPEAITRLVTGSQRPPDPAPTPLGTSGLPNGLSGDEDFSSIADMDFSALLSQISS

The exact form of at least one protein or probe is not confirmed. Results from cells or extracts need not show a direct contact. For some assays here: A negative result means that nothing was seen under these conditions. For some assays here: Tags and fusion partners may be left off the protein sequences shown. At least one verdict rests on a figure or table, not on a statement of the authors.

What all share (test): pull-down
For data set [1], the target named is T1, p52 (mouse (MEF)) (UniProt Q9WTK5).
T1 sequence (looked up, limits assumed): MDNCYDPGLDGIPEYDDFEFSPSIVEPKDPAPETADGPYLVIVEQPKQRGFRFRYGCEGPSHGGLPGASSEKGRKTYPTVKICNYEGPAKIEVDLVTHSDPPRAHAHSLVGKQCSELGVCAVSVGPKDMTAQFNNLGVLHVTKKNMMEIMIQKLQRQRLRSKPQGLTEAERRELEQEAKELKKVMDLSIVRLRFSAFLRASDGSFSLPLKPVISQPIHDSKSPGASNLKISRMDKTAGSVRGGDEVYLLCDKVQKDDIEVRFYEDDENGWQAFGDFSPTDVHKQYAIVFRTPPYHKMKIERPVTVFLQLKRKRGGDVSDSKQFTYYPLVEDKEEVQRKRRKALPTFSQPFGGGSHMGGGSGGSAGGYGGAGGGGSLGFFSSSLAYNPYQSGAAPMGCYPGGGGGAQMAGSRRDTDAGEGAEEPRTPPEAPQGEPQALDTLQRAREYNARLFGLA
The settings on record: WT and E1A/Ras MEF nuclear extract, mTNF 1 h, not defective in E1A/Ras; Pull-down: 20 mM HEPES pH 7.8, 50 mM KCl, 0.2 mM EDTA, 1.5 mM MgCl2, 1 mM DTT, 0.25% Triton, 10% glycerol; probe mixed with extract on ice 1 h; protein in an extract.

Data set [2] addresses T2, Bcl-3 (mouse (MEF)) (UniProt Q9Z2F6).
T2 sequence (looked up, limits assumed): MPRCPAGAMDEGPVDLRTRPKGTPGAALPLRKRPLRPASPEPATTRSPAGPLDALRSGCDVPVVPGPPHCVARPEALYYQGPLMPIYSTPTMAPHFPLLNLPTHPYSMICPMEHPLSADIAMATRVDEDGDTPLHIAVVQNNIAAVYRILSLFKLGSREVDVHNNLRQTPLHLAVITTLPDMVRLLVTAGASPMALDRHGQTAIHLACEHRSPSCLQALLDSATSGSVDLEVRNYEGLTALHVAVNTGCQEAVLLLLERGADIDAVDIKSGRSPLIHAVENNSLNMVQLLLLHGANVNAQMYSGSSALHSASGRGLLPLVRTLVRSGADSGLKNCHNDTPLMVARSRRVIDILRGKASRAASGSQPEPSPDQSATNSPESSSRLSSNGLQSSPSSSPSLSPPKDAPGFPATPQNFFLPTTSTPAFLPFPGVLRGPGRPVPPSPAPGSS
The settings on record: mTNF 1 h, Pull-down: 20 mM HEPES pH 7.8, 50 mM KCl, 0.2 mM EDTA, 1.5 mM MgCl2, 1 mM DTT, 0.25% Triton, 10% glycerol, probe mixed with extract on ice 1 h, protein in an extract.

The target in data set [3] is T3, p50 (mouse (MEF)) (UniProt P25799).
T3 sequence (looked up, limits assumed): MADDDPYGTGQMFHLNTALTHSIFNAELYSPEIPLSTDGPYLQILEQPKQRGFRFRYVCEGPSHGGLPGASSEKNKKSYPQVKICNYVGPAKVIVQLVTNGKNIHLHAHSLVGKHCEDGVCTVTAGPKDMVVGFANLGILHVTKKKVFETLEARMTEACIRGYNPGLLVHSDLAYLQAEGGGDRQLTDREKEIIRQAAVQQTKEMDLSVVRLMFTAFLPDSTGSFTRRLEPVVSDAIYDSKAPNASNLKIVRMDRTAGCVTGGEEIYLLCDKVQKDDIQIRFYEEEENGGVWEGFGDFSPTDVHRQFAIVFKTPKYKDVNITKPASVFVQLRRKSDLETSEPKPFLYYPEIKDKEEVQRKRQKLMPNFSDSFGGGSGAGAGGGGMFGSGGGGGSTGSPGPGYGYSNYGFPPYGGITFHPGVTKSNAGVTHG
As to conditions: WT and E1A/Ras MEF nuclear extract, mTNF 1 h, not defective in E1A/Ras; Pull-down: 20 mM HEPES pH 7.8, 50 mM KCl, 0.2 mM EDTA, 1.5 mM MgCl2, 1 mM DTT, 0.25% Triton, 10% glycerol; probe mixed with extract on ice 1 h; protein in an extract.

Data set [4] addresses p65 (mouse (MEF)) (UniProt Q04207). The settings on record: WT and E1A/Ras MEF nuclear extract, mTNF 1 h, not defective in E1A/Ras; Pull-down: 20 mM HEPES pH 7.8, 50 mM KCl, 0.2 mM EDTA, 1.5 mM MgCl2, 1 mM DTT, 0.25% Triton, 10% glycerol; probe mixed with extract on ice 1 h; protein in an extract.

With “GTGACTTTGGAAAGTCCCGTGGAAATCCCCGGGC (double strand) [A20 promoter NF-kB site oligo]”, the binding result is “binds” in data set [1]; “no binding” in data set [2] (E1A/Ras MEF nuclear extract, Bcl-3 present in nuclei at similar amount); “binds” in data set [2] (WT MEF nuclear extract); “binds” in data set [3]; “binds” in data set [4].
